Test results from US20160193294A1.
No constants are given. Whether binding was seen depends on the method and setting. Some binding calls cover weakened binding; strength is not graded here. Sequences can lack the tags named with a protein.

Molecular target: T1, CD44 (mouse, on bone marrow cells) (mouse) (UniProt P15379)
T1 sequence (looked up): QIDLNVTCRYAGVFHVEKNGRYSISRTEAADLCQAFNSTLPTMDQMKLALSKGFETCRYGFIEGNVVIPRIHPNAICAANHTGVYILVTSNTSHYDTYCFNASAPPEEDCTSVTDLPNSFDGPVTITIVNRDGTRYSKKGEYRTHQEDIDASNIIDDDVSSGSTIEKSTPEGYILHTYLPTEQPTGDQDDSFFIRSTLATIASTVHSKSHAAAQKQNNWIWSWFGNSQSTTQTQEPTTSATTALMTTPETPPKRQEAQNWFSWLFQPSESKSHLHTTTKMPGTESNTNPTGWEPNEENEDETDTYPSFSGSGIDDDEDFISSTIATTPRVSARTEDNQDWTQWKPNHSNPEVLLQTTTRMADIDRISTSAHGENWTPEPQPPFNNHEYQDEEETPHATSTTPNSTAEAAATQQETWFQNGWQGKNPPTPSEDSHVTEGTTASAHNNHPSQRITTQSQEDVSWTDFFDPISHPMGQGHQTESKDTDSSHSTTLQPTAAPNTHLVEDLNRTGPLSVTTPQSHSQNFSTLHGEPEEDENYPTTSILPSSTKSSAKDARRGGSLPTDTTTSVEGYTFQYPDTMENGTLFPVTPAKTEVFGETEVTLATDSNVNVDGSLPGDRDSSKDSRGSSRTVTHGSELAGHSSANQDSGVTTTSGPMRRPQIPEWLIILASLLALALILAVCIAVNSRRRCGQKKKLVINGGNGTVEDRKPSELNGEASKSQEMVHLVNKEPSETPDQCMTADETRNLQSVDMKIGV
Experiment: flow cytometry: soluble selectin-IgMFc on bone marrow granulocytes of wild-type and knock-out mice

binding: binds
B1: recombinant human E-selectin extracellular domain fused with the Fc fragment of human IgM (Fc fusion, UniProt P16581 22-556, looked up, not shown: a dimerising Fc or GST)
chain: WSYNTSTEAMTYDEASAYCQQRYTHLVAIQNKEEIEYLNSILSYSPSYYWIGIRKVNNVWVWVGTQKPLTEEAKNWAPGEPNNRQKDEDCVEIYIKREKDVGMWNDERCSKKKLALCYTAACTNTSCSGHGECVETINNYTCKCDPGFSGLKCEQIVNCTALESPEHGSLVCSHPLGNFSYNSSCSISCDRGYLPSSMETMQCMSSGEWSAPIPACNVVECDAVTNPANGFVECFQNPGSFPWNTTCTFDCEEGFELMGAQSLQCTSSGNWDNEKPTCKAVTCRAVRQPQNGSVRCSHSPAGEFTFKSSCNFTCEEGFMLQGPAQVECTTQGQWTQQIPVCEAFQCTALSNPERGYMNCLPSASGSFRYGSSCEFSCEQGFVLKGSKRLQCGPTGEWDNEKPTCEAVRCDAVHQPPKGLVRCAHSPIGEFTYKSSCAFSCEEGFELHGSTQLECTSQGQWTEEVPSCQVVKCSSLAVPGKINMSCSGEPVFGTVCKFACPEGWTLNGSAARTCGATGHWSGLLPTCEAPTESNIP
